Results published in PubChem BioAssay AID1347076 (National Center for Advancing Translational Sciences (NCATS), 2019).
The campaign covered roughly 400,000 compounds. About 13,000 (3.2%) were called active. The shares of active, inactive and inconclusive entries below differ from those in the screen. The call rests on the fitted dose curve; in most records, active means well fitted cell-killing curve with a large enough effect; inconclusive means small, poorly fitted or top-dose-only effect, or effect the other way; inactive means flat fitted curve, though single readings scatter. Where the call is inconclusive, the potency comes from a doubtful curve fit.
On the % scale 0 is the no-effect control and ±100 the full control effect; potency means the concentration at half of the fitted maximal effect.

Assay: qHTS assay for MDR1-selective chemotherapeutics: Primary screen using the drug-selected MDR subline cells KB-V1; further: nearly all actives have a fitted effect of over 60% in size
Settings: KB-V1 MDR cells viability, CellTiter-Glo, 72 h; activity change, negative = cytotoxicity: at 46.1 µM (top of the series)
Method in brief: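 KB-V1, DMEM (no phenol red) + 10% FBS; cpd pin-transferred, titration series; 72 h, 37 degrees C; CellTiter-Glo, luminescence. Data normalized, curve-fit.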
For `O=C(NCCCO)C(=O)Nc1ccc2c(c1)N(S(=O)(=O)c1cccs1)CCC2`, the “activity change, negative = cytotoxicity” value was inactive: -17.8%.
For `O=C(Nc1nccs1)C1CCN(S(=O)(=O)c2cnc[nH]2)CC1`, the Potency was inconclusive: 5.8 µM [rising, partial curve, poor fit].
For `CCc1ccc(NC(=O)c2cc(=O)c3ccc(C)c(C)c3o2)cc1`, the Potency was active: 5.8 µM.
In the case of `CCOC(=O)N1CCC(NC(=O)C2CCC(CNS(=O)(=O)c3ccc(OC)cc3)CC2)CC1` (configuration not stated), the Potency is reported as inconclusive: 8.2 µM [rising, partial curve].
In the case of `COc1ccc(C2c3ccc4ccccc4c3Oc3ncn(CCO)c(=N)c32)cc1OC` (configuration not stated), the Potency is reported as inconclusive: 6.51 µM [rising, partial curve, poor fit].
With `Cc1cccc(N(Cc2ccccc2)C(=O)Cc2ccc(S(=O)(=O)N3CCOCC3)s2)c1` the Potency was inconclusive: 7.31 µM [cytotoxic, partial curve].
With `N#C/C(N)=C(/C#N)N=Cc1cccc(Cl)c1` the Potency was inconclusive: 29.1 µM [rising, single point].
With `O=[N+]([O-])c1ccccc1/C=N/Nc1nc(N2CCCC2)nc(N2CCCC2)n1` the Potency was inconclusive: 8.2 µM [cytotoxic, partial curve, poor fit].
For `O=C(Nc1ccc2c(c1)OCCO2)c1c(F)cccc1F`, the Potency was inconclusive: 29.1 µM [cytotoxic, single point].
For `CCCCCOc1ccc(/C=C/C(=O)Nc2sc3c(c2C(=O)OCC)CCC3)cc1OC`, the “activity change, negative = cytotoxicity” value was inactive: 20.4%.
For `CCCCOc1cccc(C2c3c(-c4cc(C)ccc4O)n[nH]c3C(=O)N2CCOC)c1` (configuration not stated), the Potency was inconclusive: 20.6 µM [cytotoxic, single point].
With `CNC(=O)c1cnc2sc(N3CCC(C)CC3)nn2c1=O` the “activity change, negative = cytotoxicity” value was inactive: 4.45%.
In the case of `CCC(Nc1ccc(-c2nc(-c3ccccn3)no2)cc1[N+](=O)[O-])c1ccccc1` (configuration not stated), the “activity change, negative = cytotoxicity” value is reported as inactive: 3.22%.
With `COc1ccc(CC(=O)Nc2ccc(S(=O)(=O)N3CCCCC3)cc2)cc1OC` the Potency was inconclusive: 16.4 µM [cytotoxic, single point].
With `COc1ccc(/C(C)=N/NC(=O)c2ccccc2N)cc1` the Potency was inconclusive: 0.0052 µM [rising, full curve, poor fit].
With `CCc1nnc(SCC(=O)N2CCCC(N3CCN(c4ccccc4C)CC3)C2)o1` (configuration not stated) the Potency was inconclusive: 5.17 µM [cytotoxic, full curve].
For `CCCCCCOC(=O)C(C#N)c1nc2ccccc2nc1N1CCN(CC)CC1` (configuration not stated), the Potency was inconclusive: 25.9 µM [cytotoxic, single point].
For `COc1ccc(CCC(C)Nc2ccc(F)cc2)cc1` (configuration not stated), the Potency was inconclusive: 29.1 µM [cytotoxic, partial curve, poor fit].
For `COc1ccccc1OCC(=O)NNC(=O)C1CCN(c2ncnc3sc(C)c(C)c23)CC1`, the “activity change, negative = cytotoxicity” value was inactive: -29.6%.
For `Clc1ccccc1-c1nc2ccccc2c2nc3ccccc3n12`, the Potency was active: 4.11 µM.
In the case of `C/C(O)=C(/C#N)c1nc2ccccc2[nH]1`, the Potency is reported as inconclusive: 10.3 µM [rising, partial curve, poor fit].
For `CCCn1c(=O)c(C(=O)Nc2cc(C)ccn2)c(O)c2ccccc21`, the Potency was inconclusive: 23.1 µM [cytotoxic, single point].
For `COCCn1c(SCc2nc3scc(-c4ccc(Cl)cc4)c3c(=O)[nH]2)nnc1-c1cccc(C)c1`, the Potency was active: 5.17 µM.
In the case of `CC1CCCN(c2nc3c(c(=O)[nH]c(=O)n3C)n2CCSc2nc3ccccc3o2)C1` (configuration not stated), the “activity change, negative = cytotoxicity” value is reported as inactive: -4.01%.
For `Cc1nn(Cc2c(Cl)cccc2Cl)c(C)c1NC(=O)c1sc2ccccc2c1Cl`, the “activity change, negative = cytotoxicity” value was inactive: -25.9%.
With `O=C(CSc1nc(N2CCCCC2)nc(N2CCCCC2)n1)N1CCN(c2ccccc2)CC1` the Potency was active: 16.4 µM.
With `COC(=O)c1ccc(C2N=C(c3cccs3)CC(c3ccccc3O)N2)cc1` (configuration not stated) the “activity change, negative = cytotoxicity” value was inactive: -20.5%.
In the case of `NC(=S)NN=C1c2ccccc2-c2cc(Br)ccc21`, the Potency is reported as inconclusive: 18.4 µM [cytotoxic, single point].
In the case of `O=C1N=C(N2CCN(c3ccccc3)CC2)SC1Cc1ccccc1` (configuration not stated), the Potency is reported as active: 16.4 µM.
For `S=C(NN=Cc1ccccn1)N(Cc1ccccn1)Cc1ccccn1`, the Potency was inconclusive: 5.8 µM [cytotoxic, partial curve, poor fit].
With `Cc1cc2n(n1)CCCN2C(=O)Nc1ccccc1C(F)(F)F` the “activity change, negative = cytotoxicity” value was inactive: 0%.
In the case of `COC(=O)c1ccc(N2C(=O)CC(Sc3n[nH]c(C)n3)C2=O)cc1` (configuration not stated), the Potency is reported as inconclusive: 8.2 µM [rising, partial curve].
With `CC1(C)OC(=O)C2=C(C[C@@H](C3CCCCC3)O[C@H]2c2ccccc2)O1` the Potency was inconclusive: 11.6 µM [cytotoxic, partial curve].
For `COCCCC1CCN(C(=O)C2CCC(=O)N(C3CCCCCC3)C2)CC1` (configuration not stated), the Potency was inconclusive: 7.31 µM [cytotoxic, partial curve, poor fit].
In the case of `CC(C)Cc1ccc(S(=O)(=O)N2CCN(C(=O)c3ccco3)CC2)cc1`, the Potency is reported as active: 7.31 µM.
For `CC(C)(C)C(=O)Nc1ccc2c(c1)OCCOCCOc1cc(NC(=O)C(C)(C)C)ccc1OCCOCCO2`, the Potency was inconclusive: 20.6 µM [rising, single point].
In the case of `COc1cccc(C2c3[nH]c4ccccc4c3C[C@H]3C(=O)N(CCCCCO)CC(=O)N23)c1` (some centres not stated), the Potency is reported as inconclusive: 0.651 µM [cytotoxic, full curve, poor fit].
With `COc1ccc(N/N=C(/N=Nc2nc(C)cc(=O)[nH]2)c2ccccc2)cc1` the Potency was inconclusive: 2.91 µM [cytotoxic, full curve].
For `CCn1c(SCc2ccc(Cl)cc2)nc2nc3c(cc2c1=O)CCCC3`, the Potency was inconclusive: 5.17 µM [cytotoxic, partial curve].
With `O=c1[nH]c(CSc2nc(-c3ccccc3)cs2)nc2ccccc12` the Potency was inconclusive: 16.4 µM [cytotoxic, single point].
With `COc1ccc(CNC(=O)c2cc(S(=O)(=O)N3CCCCC3)ccc2Cl)cc1OC` the “activity change, negative = cytotoxicity” value was inactive: -26.5%.
With `CC(Sc1ccccc1)C(=O)N1CCN(S(=O)(=O)c2ccc(Cl)cc2)CC1` (configuration not stated) the Potency was inconclusive: 5.8 µM [cytotoxic, partial curve].
With `COc1cc(NC(=O)CCC(=O)O)nc(OC)n1` the Potency was inconclusive: 29.1 µM [rising, single point].
With `Cc1cccc2cc3c(N)c(C#N)sc3nc12` the Potency was active: 1.46 µM.
In the case of `OCC1(CCc2ccccc2)CCCN(C/C=C/c2ccccc2)C1` (configuration not stated), the Potency is reported as inconclusive: 16.4 µM [cytotoxic, single point].
For `CC12CCC(O)CC1=CCC1C2CCC2(C)C1CCC21CCC(=O)O1` (configuration not stated), the Potency was active: 20.6 µM.
With `O=C(Nc1ccc(F)cc1)c1cccnc1` the Potency was inconclusive: 29.1 µM [rising, single point].
In the case of `Cc1cc(C(F)(F)F)nn1CC(=O)NNC(=S)Nc1ccc(Cl)cc1`, the Potency is reported as inconclusive: 7.94 µM [rising, partial curve].
For `C=CCNC(=O)c1ccccc1NC(=O)COc1ccccc1`, the Potency was inconclusive: 29.1 µM [cytotoxic, single point].
For `CCn1c(=O)cc(OCC(=O)N2CCCCCC2)c2ccccc21`, the Potency was inconclusive: 6.31 µM [cytotoxic, partial curve, poor fit].
For `O=C(Nc1cccn(Cc2c(Cl)cccc2Cl)c1=O)c1ccc(Cl)cc1`, the Potency was active: 3.66 µM.
For `CC1CCN(S(=O)(=O)c2ccc(-c3nnc(SCc4cccnc4)o3)cc2)CC1`, the Potency was inconclusive: 2.31 µM [cytotoxic, full curve].
In the case of `COc1cc2c(C(=O)N3CCN(c4ccccc4C)CC3)c(C)oc2cc1Br`, the Potency is reported as active: 5.8 µM.
In the case of `OCc1ccccc1-c1ccc2nccn2c1`, the “activity change, negative = cytotoxicity” value is reported as inactive: -0.62%.
With `CC(=O)c1ccc(NC(=O)N2CCN(c3ccc(C)cc3)C(C)C2)cc1` (configuration not stated) the Potency was inconclusive: 13 µM [cytotoxic, partial curve].
For `Cc1ccsc1CN(Cc1ccco1)c1cnc(S(C)(=O)=O)nc1C(=O)Nc1ccc(Cl)cc1`, the “activity change, negative = cytotoxicity” value was inactive: -7.86%.
With `ClC(=C\c1ccccc1)/C=N/N1CCN(c2ccccn2)CC1` the Potency was active: 18.4 µM.
In the case of `CCOc1ccc(NC(=O)CNC(=O)c2ccc(OC)cc2)cc1`, the “activity change, negative = cytotoxicity” value is reported as inactive: 26.3%.
In the case of `CCN(CC)CCn1nc(C)nc1-c1ccccc1O`, the Potency is reported as inconclusive: 29.1 µM [cytotoxic, partial curve, poor fit].
For `COc1ccc(-c2cn3nc(SCC(=O)Nc4cccc(C)c4C)ccc3n2)cc1`, the Potency was inconclusive: 0.0366 µM [cytotoxic, full curve, poor fit].
In the case of `Cc1nn(C)c(C)c1CNC(=O)c1nn2c(c1Cl)NC(c1cccs1)CC2C(F)(F)F` (configuration not stated), the Potency is reported as active: 9.2 µM.
With `COc1ccccc1C(c1nnnn1CCc1ccccc1)N1CCCCCC1` (configuration not stated) the Potency was active: 16.4 µM.
For `CCn1c(SCc2nc3ccccc3[nH]2)nnc1-c1ccc(OC)cc1`, the Potency was active: 10.3 µM.
With `COc1ccc(CC(=O)Nc2nccs2)cc1OC` the “activity change, negative = cytotoxicity” value was inactive: -24.9%.
For `CCOC(=O)C1=C(c2ccccc2)OC(N)=C(C#N)C1c1cccs1` (configuration not stated), the Potency was inconclusive: 35.5 µM [rising, single point].
For `O=C(NC1CC1)C1=C[C@@H](C2CCCCC2)C[C@@H](OCc2ccc(CO)cc2)O1`, the “activity change, negative = cytotoxicity” value was inactive: -1.28%.
With `Cc1ccc(NS(=O)(=O)c2ccc(-n3cccn3)cc2)c(Br)c1` the Potency was inconclusive: 18.4 µM [cytotoxic, single point].
In the case of `Cc1ccc(OCc2cc(C(=O)N(CCO)Cc3cccs3)no2)cc1C`, the Potency is reported as inconclusive: 29.1 µM [cytotoxic, single point].
With `Cc1cccc(C(=O)Nc2ccc(OCc3cc(=O)n4ccc(C)cc4n3)cc2)c1` the “activity change, negative = cytotoxicity” value was inactive: 8.48%.
For `COc1ccc(/C=N/NC(=O)c2c([N+](=O)[O-])c(C)nn2C)cc1`, the “activity change, negative = cytotoxicity” value was inactive: -3.01%.
With `COc1ccc(C(C(=O)NC2CCCC2)N(C(=O)c2snc(C(N)=O)c2N)c2cccc(O)c2)cc1` (configuration not stated) the “activity change, negative = cytotoxicity” value was inactive: 20.7%.
In the case of `O=CNc1ccc2c(c1)Cc1cccc(NC=O)c1-2`, the Potency is reported as active: 6.51 µM.
